No constants are given. Whether binding was seen depends on the method and setting. Some binding calls cover weakened binding; strength is not graded here.
Tests used:
[1] = biological target: HDM2 on the plasma membrane of intact human cancer cells (human) (UniProt Q00987); test: cell-ELISA on intact MIA PaCa-2 cells
[2] = biological target: HDM2 on the plasma membrane of intact human cancer cells (human) (UniProt Q00987); test: cell-ELISA on intact human cancer cells
[3] = biological target: MDM2 on the plasma membrane of intact mouse cancer cells (mouse) (UniProt P23804); test: cell-ELISA on intact mouse cancer cells
[4] = biological target: MDM2 on the plasma membrane of intact mouse cancer cells (mouse) (UniProt P23804); test: cell-ELISA on intact murine cancer cells
[5] = biological target: MDM2 on the plasma membrane of intact mouse cancer cells (mouse) (UniProt P23804); test: cell-ELISA on intact rodent cancer cells
[6] = biological target: HDM2 on the plasma membrane of intact human cancer cells (human) (UniProt Q00987); test: cell-ELISA on intact EDTA-released MIAPaCa-2 cells
[7] = biological target: HDM2 on the plasma membrane of intact human cancer cells (human) (UniProt Q00987); test: cell-ELISA on intact MIA PaCa-2 cells, peptide competition
[8] = biological target: MDM2 on the plasma membrane of intact mouse cancer cells (mouse) (UniProt P23804); test: cell-ELISA, 1 µg/mL, on intact MC-38, LL/2 and Panc02 cells (FIG. 4)
[9] = biological target: HDM2 on the plasma membrane of intact human cancer cells (human) (UniProt Q00987); test: cell-ELISA, 1 µg/mL, on intact MCF-7, HCC1806, MIA PaCa-2, OVCAR-3, OVCA.4, A2058 and 92.1 cells
[10] = biological target: MDM2 on the plasma membrane of intact mouse cancer cells (mouse) (UniProt P23804); test: cell-ELISA, 1 µg/mL, on intact MC-38, LL/2 and Panc02 cells (FIG. 5)
[11] = biological target: MDM2 on the plasma membrane of intact mouse cancer cells (mouse) (UniProt P23804); test: cell-ELISA, 1 µg/mL, on intact MC-38, LL/2 and Panc02 cells (FIG. 3)
[12] = biological target: HDM2 on the plasma membrane of intact human cancer cells (human) (UniProt Q00987); test: cell-ELISA on intact MIA PaCa-2 cells, competition with recombinant HDM2
[13] = biological target: HDM2 on the plasma membrane of intact human cancer cells (human) (UniProt Q00987); test: cell-ELISA, 1 µg/mL, on intact MCF-7, HCC1806, MIA PaCa-2, OVCAR-3, OVCA4, A2058 and 92.1 cells

The chains behind the UniProt entries cited, without tags or fusion partners. Where a name states a change or a piece, a line headed by the entry shows the natural chain unless it says otherwise.
UniProt Q00987: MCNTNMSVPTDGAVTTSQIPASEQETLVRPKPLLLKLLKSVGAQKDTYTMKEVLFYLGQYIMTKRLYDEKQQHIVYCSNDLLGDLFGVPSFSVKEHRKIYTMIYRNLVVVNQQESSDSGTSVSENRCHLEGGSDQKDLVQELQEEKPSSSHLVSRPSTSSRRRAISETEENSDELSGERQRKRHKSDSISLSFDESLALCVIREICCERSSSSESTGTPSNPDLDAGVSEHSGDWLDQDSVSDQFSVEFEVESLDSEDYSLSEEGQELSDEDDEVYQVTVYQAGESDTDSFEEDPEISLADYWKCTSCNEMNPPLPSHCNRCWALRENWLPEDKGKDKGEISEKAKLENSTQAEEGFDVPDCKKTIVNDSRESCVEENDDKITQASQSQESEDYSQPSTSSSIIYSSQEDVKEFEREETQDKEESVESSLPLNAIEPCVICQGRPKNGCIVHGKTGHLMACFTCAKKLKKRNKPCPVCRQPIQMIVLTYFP
UniProt P23804: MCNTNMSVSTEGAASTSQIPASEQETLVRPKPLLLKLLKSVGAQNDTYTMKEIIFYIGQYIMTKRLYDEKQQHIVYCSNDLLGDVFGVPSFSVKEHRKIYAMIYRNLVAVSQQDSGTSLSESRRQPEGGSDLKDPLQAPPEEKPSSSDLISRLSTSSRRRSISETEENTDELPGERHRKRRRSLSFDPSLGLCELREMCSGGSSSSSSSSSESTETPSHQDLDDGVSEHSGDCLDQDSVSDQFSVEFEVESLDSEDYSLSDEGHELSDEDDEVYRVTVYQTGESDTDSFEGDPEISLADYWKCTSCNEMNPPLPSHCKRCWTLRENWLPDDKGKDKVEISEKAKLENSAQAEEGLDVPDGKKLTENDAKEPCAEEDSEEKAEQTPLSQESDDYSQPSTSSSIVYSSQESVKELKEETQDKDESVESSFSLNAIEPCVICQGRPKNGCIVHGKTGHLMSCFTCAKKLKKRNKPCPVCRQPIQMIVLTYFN

Measured: binding

B1: monoclonal antibody NMC-204 (antibody, IgG3, V domains shown)
VH: EVQLQESGSVLVRPGASVKLSCKASGDTLSGSWMHWAMQRPGQGLEWIGEIHLNRGTTNYNEKFKGKATVTVDTSSSTAYVDLSSLTSEDSAVYYCARSPGFAYWGQGTLVTVSA
VL: GIVMTQAAPSVPVTPGESVSISCRSSKSLLHSNGNSYLYWFLQRPGQSPQLLIYRMSNLASGVPDRFSGSGSGTAFTLRITRVEAEDVGVYYCMQHLEYPFTFGSGTKLEIK
not listed: [10] | [11] | [12] | [13]
binds: all other assays above

B2: monoclonal antibody NMC-303 (antibody, V domains shown)
VH: QVQLQQPGAELVKPGASVKLSCKASGYTFTSYYMYWVKQRPGQGLEWIGGINPRNGGTNFNEKFKNKATLTADKSSTTAYMQLSSLTSEDSAVYYCTRSGYYAMDYWGQGTSVTVSS
VL: DIQMTQTTSSLSASLGDRVTISCRASQDISNFLNWYQQKPDGTVKLLIYYTSRLHSGVPSRFSGSGSGTDYSLTISNLEQEDIATYFCQQGNTLPRTFGGGTKLEIK
binds: [2] | [3] | [4] | [5] | [7] | [10] | [9]

B3: monoclonal antibody NMC-103 (antibody, IgG1, V domains shown)
VH: EVQLQESGGGLVQPGGSLRLSCTTSGFTFTHYYMSWVRQPPGKALEWLGFIRNKAKGYTAEYSASVKGRFTISRDNSQSILYLQMNTLRPEDSATYYCARDIGDNWGQGTLVTVSS
VL: DIVMTQAAFSNPVTLGTSASISCRSSKNLLHSNGITYLYWYLQRPGQSPQLLISRVSNLASGVPNRFSGSESGTDFTLRISRVEAEDVGVYFCAQLLELPYTFGGGTKLEIK
not listed: [1] | [8] | [9] | [10]
binds: all other assays above

Reference: patent US20210032364A1
